Measured values published in US20220135941A1, “COMPOSITIONS AND METHODS FOR LONG TERM CULTURE OF HEPATOCYTES” (Peking University, priority 2019, published 2022).
Structures can show the parent of a compound that is named as a salt. At least one structure is not confirmed: it was looked up by name or label, or the drawing left a doubt.

System: primary human hepatocytes (PHHs)
Protocol: The present study was approved by the Research Ethics Committee of China-Japan Friendship Hospital (Ethical approval No: 2009-50). PHHs were obtained from human donors. Human hepatocytes were isolated from discarded human livers. A modified two-step collagenase perfusion procedure was used to isolate primary human hepatocytes from these tissues (OOtani, et al., Nat Med., 15:701-706 (2009)). Briefly, the liver tissue was perfused with PB (perfusion buffer: 0.15 M NaCl; 5 mM KCl; 25 mM NaHCO3; 5 mM Glucose; 20 mM Hepes) to remove remaining blood cells, followed by PBE (perfusion buffer plus 1 mM EDTA) perfusion. The tissue was then perfused with PBC (perfusion buffer plus 1 mg/mL collagenase type IV, 5 mM CaCl2, Gibco). All the buffers were prewarmed to 37° C. prior to the isolation process. The hepatocytes suspension was collected and washed with Williams' Medium E (Gibco), then filtered through a 40 μm Nylon cell strainer (Falcon). The isolated hepatocytes were then seeded on collagen type I-coated (Rat tail collagen type I, Gibco) plates at a density of 2.5×10^5/cm2.
Serum-free medium used for hepatocyte culture (Null): Williams' medium E containing B27 (50×, Gibco), Glutmax (Gibco) and Pen Strep (Gibco). DMSO vehicle control: Null supplemented with nearly 0.035% DMSO. […]
Total RNA was isolated using the RNeasy Micro Kit (QIAGEN). […] The data were analyzed using the delta-delta Ct method.

Compound: c1ccc2c(-c3cnn4cc(-c5ccc(N6CCNCC6)cc5)cnc34)ccnc2c1 [LDN193189, 4-[6-[4-(1-Piperazinyl)phenyl]pyrazolo[1,5-a]pyridimin-3-yl]quinoline dihydrochloride]
- expression of EMT marker genes (COL1A1; Thy1; VIM) (added to SB43 and FSK combination): further blocked
- expression of mesenchymal marker gene COL1A1 (combined with SB43 and FSK, day 14, normalized to FSK+SB43): decreased
